PubChem BioAssay AID1508588 – Peter MacCallum Cancer Centre, 2020
In all, the deposit lists about 18,000 reagents; below is a part drawn at random. 790 of them (4.4%) were called active. 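Calls rest on a combination of fold-change classes in drug and vehicle arms, not all shown here.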 Entries without a mark were called inactive. Some reagents were tested in more than one well and are listed for each.

- Aim: 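Genome-wide search for knock-downs that heighten vemurafenib action in melanoma cells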 (primary screen)
- Cell system: human WM266.4 melanoma cells (BRAF V600 mutant)
- Reagent: siRNA pool against human genes, 40 nM
- Duration: 96 h from transfection to read-out
- Challenge: vemurafenib 300 nM (about IC25), added 48 h after transfection, for 48 h; comparison arm got DMSO vehicle only
- Measurement: 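Ratios to non-targeting siRNA for cell gain, counted as DAPI nuclei after minus before drug and averaged over two replicates, and for absorbance-read medium lactate per cell; both binned into fold-change classes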
- Reading the numbers: cell gain with vemurafenib: higher = more cell gain than with non-targeting siRNA; lactate per cell with vemurafenib: higher = more lactate made per cell
- Hit rule: 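a knock-down counts as enhancing when its fold-change classes with vehicle and with vemurafenib, taken together, show a stronger drug effect on cell gain or lactate per cell; exact class pairs not stated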
- Calls: active = enhances vemurafenib effect; inactive = no enhancement seen

The opening 4 records as a preview:
gene knocked down | cell gain with vemurafenib | lactate per cell with vemurafenib
TOB2 (transducer of ERBB2, 2) | 0.52 | 0.64
H2BC12 (H2B clustered histone 12) | 1 | 0.67
SPC25 (SPC25 component of NDC80 kinetochore complex) | 0.18 | 2.25
RBKS (ribokinase) | 0.61 | 0.44

Main list, from the start:
gene knocked down | cell gain with vemurafenib | lactate per cell with vemurafenib
TOB2 (transducer of ERBB2, 2) | 0.52 | 0.64
H2BC12 (H2B clustered histone 12) | 1 | 0.67
SPC25 (SPC25 component of NDC80 kinetochore complex) | 0.18 | 2.25
RBKS (ribokinase) | 0.61 | 0.44
ZNF324B (zinc finger protein 324B) | 0.39 | 0.75
LVRN (laeverin) | 0.42 | 1.22
LVRN (laeverin) | 0.29 | 1.07
PHYH (phytanoyl-CoA 2-hydroxylase) | 0.83 | 0.65
MRPL57 (mitochondrial ribosomal protein L57) | 0.46 (active) | 0.4
EXOC4 (exocyst complex component 4) | 0.9 | 0.88
NFKB2 (nuclear factor kappa B subunit 2) | 0.58 | 1.01
NAA80 (N-alpha-acetyltransferase 80, NatH catalytic subunit) | 0.32 | 1.53
MTG1 (mitochondrial ribosome associated GTPase 1) | 0.61 (active) | 0.48
EDRF1 (erythroid differentiation regulatory factor 1) | 0.76 | 1.08
GLDN (gliomedin) | 0.81 | 1.27
PTPRD (protein tyrosine phosphatase receptor type D) | 0.89 | 0.77
BTN2A3P (butyrophilin subfamily 2 member A3, pseudogene) | 0.74 | 0.81
ADAM8 (ADAM metallopeptidase domain 8) | 0.2 | 1.57
OXTR (oxytocin receptor) | 0.95 | 0.74
GOLGA6B (golgin A6 family member B) | 0.78 | 0.92
EFCAB5 (EF-hand calcium binding domain 5) | 1.07 | 0.65
PES1 (pescadillo ribosomal biogenesis factor 1) | 0.09 | 1.7
SLC35E2A | -0.03 | 4.36
PTHLH (parathyroid hormone like hormone) | 0.34 | 1.02
PLCB1 (phospholipase C beta 1) | 0.89 | 0.6
KCTD4 (potassium channel tetramerization domain containing 4) | 0.57 | 0.43
ATAD3A (ATPase family AAA domain containing 3A) | 0.83 | 0.69
CCNB1 (cyclin B1) | 0.3 | 1.28
VASH2 (vasohibin 2) | 0.83 | 0.49
NR3C2 (nuclear receptor subfamily 3 group C member 2) | 0.85 | 1.1
CNOT4 (CCR4-NOT transcription complex subunit 4) | 0.51 | 0.95
MRPS10 (mitochondrial ribosomal protein S10) | 0.49 | 1.1
EIF2AK1 (eukaryotic translation initiation factor 2 alpha kinase 1) | 0.76 | 0.95
ARID5B (AT-rich interaction domain 5B) | 1.15 | 0.59
